For experiment [1], the target named is MYC-tagged Tead3 CT (C-terminal region = YAP-binding domain) (mouse). The experiment can be described thus: co-IP; HEK293T cells co-transfected with SFB-Nfatc1 and MYC-tagged full-length or truncated Tead3; RIPA lysate; pulldown with a MYC-specific antibody; blots for MYC and FLAG.
The target of experiment [2] is MYC-tagged Tead3 NT (N-terminal region = DNA-binding domain, TEA domain) (mouse). Described as above.

No constants are given. Whether binding was seen depends on the method and setting. In cells and extracts the contact can be indirect. For some assays here: A result given as binding can be weak or reduced; the word gives no strength. Where a sequence is shown, tags or fusion partners need not be part of it.

B1: SFB-tagged full-length mouse Nfatc1 (protein, UniProt O88942 1-717)
chain: MPNTSFPVPSKFPLGPPAAVCGSGETLRPAPPSGGTMKAAEEEHYSYVSPSVTSTLPLPTAHSALPAACHDLQTSTPGISAVPSANHPPSYGGAVDSGPSGYFLSSGNTRPNGAPTLESPRIEITSYLGLHHGSGQFFHDVEVEDVLPSCKRSPSTATLHLPSLEAYRDPSCLSPASSLSSRSCNSEASSYESNYSYPYASPQTSPWQSPCVSPKTTDPEEGFPRSLGACHLLGSPRHSPSTSPRASITEESWLGARGSRPTSPCNKRKYSLNGRQPSCSPHHSPTPSPHGSPRVSVTEDTWLGNTTQYTSSAIVAAINALTTDSTLDLGDGVPIKSRKTALEHAPSVALKVEPAGEDLGTTPPTSDFPPEEYTFQHLRKGAFCEQYLSVPQASYQWAKPKSLSPTSYMSPSLPALDWQLPSHSGPYELRIEVQPKSHHRAHYETEGSRGAVKASAGGHPIVQLHGYLENEPLTLQLFIGTADDRLLRPHAFYQVHRITGKTVSTTSHEIILSNTKVLEIPLLPENNMRAIIDCAGILKLRNSDIELRKGETDIGRKNTRVRLVFRVHIPQPNGRTLSLQVASNPIECSQRSAQELPLVEKQSTDSYPVIGGKKMVLSGHNFLQDSKVIFVEKAPDGHHVWEMEAKTDRDLCKPNSLVVEIPPFRNQRITSPAQVSFYVCNGKRKRSQYQRFTYLPANGNSVFLTLSSESELRGGFY
B1: the binding entry in experiment [1] is given as “no binding”; in experiment [2] it was “binds”.

These data come from paper PMC10055520.
